Assay results: patent publication US20130237684A1
No constants are given. Whether binding was seen depends on the method and setting. Some entries that bind do so weakly or less than the wild type.

Protein sequences, listed by entry. Tags and fused reporters are not part of them. Residues count along the entry.
UniProt P0CG63, residues 1-76: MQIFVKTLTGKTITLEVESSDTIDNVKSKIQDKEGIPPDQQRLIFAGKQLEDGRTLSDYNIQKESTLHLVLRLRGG

Biological target: Yeast ubiquitin (Sigma) (yeast) (UniProt P0CG63)
Assay: clone isolated by phage display selection on ubiquitin; listed as ubiquitin-binding monobody

Row | Binder | binding
1 | ubiquitin-binding monobody 422 (Fn3 with BC loop ARWTL and FG loop RRWWW), phage clone (designed binder, not shown: large carriers; small tags and cut ends) VSDVPRDLEVVAATPTSLLISWDAPARWTLYYRITYGETGGNSPVQEFTVPGSKSTATISGLKPGVDYTITVYAVTRRWWWSKPISINYRT | binds
2 | ubiquitin-binding monobody 424 (Fn3 with BC loop GQRTF and FG loop RRWWA), phage clone (designed binder, not shown: large carriers; small tags and cut ends) VSDVPRDLEVVAATPTSLLISWDAPGQRTFYYRITYGETGGNSPVQEFTVPGSKSTATISGLKPGVDYTITVYAVTRRWWASKPISINYRT | binds
